“Also recorded” adds a separate entry of the source. At least one compound was matched to its structure with a doubt left.
Tested on: healthy human skin transplanted onto beige-SCID mice
Assay: Humanized psoriasis model: healthy human skin xenotransplants on beige-SCID mice injected with psoriatic patients' PBMCs
Assay type: in vivo, mouse
Text: In this model, psoriasis is induced in xenotransplants of healthy human skin transplanted onto beige severe combined immunodeficiency (SCID) mice followed by intradermal (i.d.) injection of IL-2 enriched Peripheral Blood Mononuclear Cells (PBMCs) isolated from blood of psoriasis patients (Nickoloff, 1995; Wrone-Smith, 1996 Gilhar et al., 2002, 2006, 2011). The activity of these compounds was compared to that of Enbrel, a TNF inhibitor which is an approved biological drug for treatment of psoriasis. […]
F) Twenty eight days after starting the injections and treatment, skin was harvested (FIG. 20). Grafts were analyzed for the following psoriatic parameters by histology: epidermal thickening (acanthosis), suprapapillary epidermal thinning (papillomatosis), hyperkeratosis, parakeratosis, orthokeratosis, agranulosis-hypogranulosis, appearance of neutrophils in the upper spinous layer or in the corneal cell layer—Munro microabscess, regular elongation of rete ridges, angiogenesis, edema and dilated tortuous blood vessels in the dermal papilla and mononuclear cell infiltrate in the papillary dermis. Epidermal thickness was measured as detailed below, and HLA-DR, ICAM-1, Ki-67 and immune infiltrates (anti-CD3 stain) were evaluated by immunohistochemistry (IHC). […]

Compound: C[C@@H]1C[C@H]2[C@@H]3CCC4=CC(=O)C=C[C@]4(C)[C@@]3(F)[C@@H](O)C[C@]2(C)[C@@]1(O)C(=O)CO [dexamethasone]
- infiltration of T cells (CD3 positive cells) (IHC, vs PBS treated group): significant reduction of CD3 positive cells
- epidermal thickness compared with the vehicle-treated group (one-tailed t-Test): significant reduction in epidermal thickness; also recorded: significantly reduced epidermal thickness
